Drawing on patent US20130095122A1, “Peptides or Antibodies Which Bind to Melanoma Inhibitory Activity (MIA) Protein” (priority 2010, published 2013), this text covers binding for one molecule.

Results are given in words; binding and its absence hold for the method and conditions named. Some binding calls cover weakened binding; strength is not graded here. Where a sequence is shown, tags or fusion partners need not be part of it.

The assay addresses T1, melanoma inhibitory activity (MIA) protein, recombinant human wild type (human) (UniProt Q16674).
T1 sequence: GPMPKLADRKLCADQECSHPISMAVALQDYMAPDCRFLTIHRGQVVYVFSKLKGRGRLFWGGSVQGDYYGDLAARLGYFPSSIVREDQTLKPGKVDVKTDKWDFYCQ
Nature of the assay: HTFP competition assay.

In the case of FHWRYPLPLPGQ (peptide, not shown: small tags and cut ends) [AR71-HisTag peptide], the binding result is listed as “binds”.
